Laboratory results: paper PMC11087511
For some assays here: The comparison behind a weaker result is the experiment's own reference, which may not be listed here. For some assays here: For at least one entry, the source does not settle the construct or the ends of the probe.

Columns and labels:
[1] = test system: human alpha-thrombin (human); assay: BLI; conditions: over 100-fold higher Kd than HD22-7A-DAB, aptamer domain only; 5' C6-amine; commercial protein; label: 3' TEG-biotin; folded or branched DNA
[2] = test system: human alpha-thrombin (human); assay: cited; conditions: commercial protein; folded or branched DNA

| Sequence | binding result [1] | Kd [2] |
| --- | --- | --- |
| AAAAAAAAGTCCGTGGTAGGGCAGGTTGGGGTGACT [Bio-HD22-7A-NH2] | binds more weakly |  |
| AGTCCGTGGTAGGGCAGGTTGGGGTGACT [HD22] |  | 0.5 nM |
